Results as given in PubChem BioAssay AID1347075 (National Center for Advancing Translational Sciences (NCATS), 2019).
Screen size: about 400,000 compounds; about 5,500 (1.4%) were called active. Inconclusive means that the source gave no clear call. Such entries were picked first, then a sample of the others. Calls come from the whole dose curve; as a rule, active = well fitted cell-killing curve with a large enough effect; inconclusive = small, poorly fitted or top-dose-only effect, or effect the other way; inactive = flat fitted curve, though single readings scatter. Where the call is inconclusive, the potency comes from a doubtful curve fit.

Assay: qHTS assay for MDR1-selective chemotherapeutics: Primary screen using the parental adenocarcinoma cell KB-3-1; note: nearly all actives have a fitted effect of over 60% in size
Details: KB-3-1 viability, CellTiter-Glo ATP luminescence, 72 h; series mostly up to 46.1 µM
Summary of the method: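 Luminescent ATP read-out (CellTiter-Glo) measures survival of drug-naive KB-3-1 cells after 72 h compound exposure at 37 °C. Titration series was screened from lowest to highest concentration, with DMSO vehicle plates as background controls.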
Potency is the fitted concentration of half-maximal effect.

Compound	Potency
Cc1ccc(-n2nnc(-c3nccn3C)n2)cc1	inconclusive: 29.1 µM [cytotoxic, single point]
O=c1oc2cc(Oc3c([N+](=O)[O-])cc(C(F)(F)F)cc3[N+](=O)[O-])ccc2c2c1CCCC2	inconclusive: 29.1 µM [cytotoxic, single point]
CC(=O)c1c(C)[nH]c(C(=O)OCc2nnc(-c3ccccc3)o2)c1C	inconclusive: 29.1 µM [cytotoxic, single point]
CC[C@@]1(O)C(=O)OCc2c1cc1n(c2=O)Cc2cc3c(CN(C)C)c(O)ccc3nc2-1	inconclusive: 18.4 µM [cytotoxic, single point]
COc1ccc(N=Cc2c(O)[nH]c3ccccc23)cc1OC	inconclusive: 29.1 µM [cytotoxic, single point]
O=C(O)CCSc1nnc(-c2ccncc2)n1-c1ccccc1	inactive
CCCCn1c(CN(Cc2ccccc2)Cc2ccccc2)nc2c1c(=O)n(C)c(=O)n2C	inconclusive: 20.6 µM [cytotoxic, partial curve, poor fit]
Oc1ccc(C[C@H]2CN([C@@H](Cc3ccccc3)CN3CCCC3CN3C(=S)NC[C@@H]3Cc3ccccc3)C(=S)N2CC2CCCCC2)cc1 (stereo partly specified)	inconclusive: 29.1 µM [cytotoxic, single point]
CN(C)CCCN(C(=O)c1ccc(S(=O)(=O)N2CCCC2)cc1)c1nc2ccc(Br)cc2s1	inconclusive: 13 µM [cytotoxic, partial curve, poor fit]
CCOC(=O)C1=C(CC)Nc2ccccc2N=C1NC(=O)Nc1ccc(Cl)c(Cl)c1	inconclusive: 20.6 µM [cytotoxic, single point]
Oc1ccccc1/C=N/Nc1nccnc1Cl	inconclusive: 0.731 µM [cytotoxic, full curve, poor fit]
COCCN(Cc1cc2cc3c(cc2nc1Cl)OCO3)C(=O)Nc1ccc(OC)cc1	inconclusive: 9.2 µM [cytotoxic, partial curve]
O=C(C1=C[C@@H](c2ccc(Br)cc2)C[C@@H](OCc2ccc(CO)cc2)O1)N1CCN(Cc2ccc3c(c2)OCO3)CC1	inconclusive: 25.9 µM [cytotoxic, single point]
CC(C)c1ccc(NC(=O)CCNS(=O)(=O)c2cc(Br)cnc2N)cc1	inconclusive: 18.4 µM [cytotoxic, single point]
CC(/C=C/c1ccc2c(c1)OCO2)=N/NC(=O)c1ccc(C)nc1	inconclusive: 29.1 µM [cytotoxic, single point]
O=C1NC(Cc2ccccc2)c2nc3cc(F)ccc3c(=O)n2-c2cc3ccccc3cc21 (stereo unspecified)	inconclusive: 20.6 µM [cytotoxic, single point]

Quoted from the listing.
In Potency, `CCOC(=O)C1=C(CC)Nc2ccccc2N=C1NC(=O)Nc1ccc(Cl)c(Cl)c1` has inconclusive: 20.6 µM [cytotoxic, single point]
In Potency, `Cc1ccc(-n2nnc(-c3nccn3C)n2)cc1` has inconclusive: 29.1 µM [cytotoxic, single point]
